Source: PubChem BioAssay AID1259267 (Sanger Institute, 2017)
The deposit covers 794 reagents; below is a part drawn at random. 9 of them (1.1%) were called active. 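Viability capped at 1; calls reflect loss of viability from knock-down alone, not synergy with drugs.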 A number with no mark means an inactive call. Further read-outs or replicates are left out here. The record does not give: the amount of reagent, the time to read-out.

Purpose: 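Essential and drug-synergistic knock-downs in GP5D bowel cancer cells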 (primary screen)
System: human GP5D colorectal cancer cells
Knock-down reagent: siRNA pool against human genes
Challenge: anchor drugs at low dose: BYL719 1 µM, cetuximab 5 µg/ml, trametinib 10 nM, or DMSO vehicle
Read-out: 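Viability against non-targeting pool, replicate mean: robust z-score for knock-down alone, fraction with DMSO, synergy with BYL719 1 µM, cetuximab 5 µg/ml, trametinib 10 nM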
Reading the numbers: robust z-score, knock-down alone: higher = more viable cells
Active means: 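a robust z-score below -3 for the knock-down by itself makes a gene active, i.e. essential alone; synergy scores are ignored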
Calls: active = essential alone; inactive = not essential

MAP3K19
- robust z-score, knock-down alone: 0.798

PRKCZ
- robust z-score, knock-down alone: 0.271

DLG4
- robust z-score, knock-down alone: 0.579

MAP3K9
- robust z-score, knock-down alone: -0.0729

RTN4
- robust z-score, knock-down alone: 0.817

DLG1
- robust z-score, knock-down alone: 0.572

PDK4
- robust z-score, knock-down alone: 0.817

MAPK12
- robust z-score, knock-down alone: 0.409

BMAL1
- robust z-score, knock-down alone: -1.1

NEK6
- robust z-score, knock-down alone: 0.817

NEK1
- robust z-score, knock-down alone: -1.38

ARID1A
- robust z-score, knock-down alone: 0.817

PTK6
- robust z-score, knock-down alone: 0.205

MAP3K14
- robust z-score, knock-down alone: -0.709

PAK3
- robust z-score, knock-down alone: 0.425

STK24
- robust z-score, knock-down alone: 0.817

PANK2
- robust z-score, knock-down alone: -1.38

COMMD3
- robust z-score, knock-down alone: 0.41

EEF2K
- robust z-score, knock-down alone: -2.15

EPHB3
- robust z-score, knock-down alone: -1.07

GSK3B
- robust z-score, knock-down alone: -0.195

PTPRU
- robust z-score, knock-down alone: -1.08

ELF3
- robust z-score, knock-down alone: -1.81

PDPK1
- robust z-score, knock-down alone: 0.0941

CDK5R2
- robust z-score, knock-down alone: -1.22

MYH10
- robust z-score, knock-down alone: -0.0897

PRKACG
- robust z-score, knock-down alone: 0.817

RPS6KA4
- robust z-score, knock-down alone: -1.35

CMPK1
- robust z-score, knock-down alone: -0.161

INSR
- robust z-score, knock-down alone: -0.872

RIOK1
- robust z-score, knock-down alone: 0.0157

FASTK
- robust z-score, knock-down alone: 0.817

JAK2
- robust z-score, knock-down alone: 0.79

MAPK6
- robust z-score, knock-down alone: 0.207

CASK
- robust z-score, knock-down alone: 0.817

PACSIN1
- robust z-score, knock-down alone: 0.817
